In PubChem BioAssay AID2685 (National Center for Advancing Translational Sciences (NCATS), 2010):
The other results are listed elsewhere or left out. Shown are side measurements of this screen, not its main read-out; they come without a call. Most of these compounds were active or inconclusive in the main read-out, so they are no random draw. The note in brackets gives the kind of curve behind each potency; many fits are weak.

Assay: qHTS Assay for Lipid Storage Modulators in Drosophila S3 Cells;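 as to cell number change: cells counted by Cell Tracker Red CMTPX staining in the red channel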
Settings: BODIPY lipid droplet fluorescence, 18-24 h; for cell number change: measured here: cell count max response, cells fed with added oleic acid
Procedure, shortened: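 Drosophila S3 cells got compounds at several concentrations plus oleic acid (400 uM solution). Laser-scanning cytometry with 488 nm excitation read lipid droplets at 500-530 nm and cells at 575-640 nm. Percent activity was relative to 20 uM Triacsin C.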

[1] = measured here: cell number channel AC50, cells fed with added oleic acid
[2] = measured here: lipid fluorescence (Fed channel) AC50, cells fed with added oleic acid

COc1cc(/C=C/C(=O)OC2CC3CCC2(C)C3(C)C)ccc1O (stereo not drawn)
cell number change: -75.9%
AC50 [1]: 25.9 µM [falling, single point]

Cn1c(N)c(C(=O)COC(=O)C2(c3ccc(Cl)cc3)CCCC2)c(=O)n(C)c1=O
cell number change: -10.3%
AC50 [2]: 6.51 µM [rising, partial curve, poor fit]

Cc1ccc(S(=O)(=O)N(C)C)cc1NC(=O)/C=C/c1cccs1
cell number change: 11.7%
AC50 [2]: 4.11 µM [rising, partial curve]

CCOc1ccc(NC(=O)Cn2cc(C(=O)C3CC3)c3ccccc32)cc1
cell number change: -3.85%
AC50 [2]: 6.51 µM [falling, single point]

COc1ccccc1NC(=O)CSc1nnc(Cc2ccccc2)o1
cell number change: 5.6%

COc1ccc(CN(CC2CCC(C(=O)O)CC2)C(=S)Nc2cc(C)ccc2C)cc1 (stereo not drawn)
AC50 [1]: 2.31 µM [rising, partial curve, poor fit]

Fc1cccc(F)c1/C=N/NC(=S)Nc1cccnc1
cell number change: 8.34%
AC50 [2]: 0.146 µM [falling, full curve, poor fit]

CCOC(=O)C1=C(C)Nc2sc(C(=O)c3ccc(F)cc3)c(N)c2C1c1ccc(C(=O)OC)cc1 (stereo not drawn)
cell number change: 0.427%
AC50 [2]: 2.06 µM [rising, partial curve]

CCC1COCCS(=O)(=O)N1Cc1ccc(F)cc1 (stereo not drawn)
cell number change: 32%
AC50 [1]: 0.259 µM [rising, full curve, poor fit]
AC50 [2]: 0.116 µM [rising, full curve, poor fit]

CC(=O)N1c2ccc(S(=O)(=O)NCCC(=O)NC3CCCC(C)C3C)cc2CC1C (stereo not drawn)
cell number change: 23.5%

Cc1nn(Cc2ccccc2Cl)c(C)c1C(=O)NCCN1C(=O)S/C(=C\c2ccccc2)C1=O
cell number change: -70.8%
AC50 [1]: 16.4 µM [falling, partial curve]
AC50 [2]: 20.6 µM [falling, single point]

CNS(=O)(=O)c1cc(NC(=O)c2cnc(SC)n2-c2ccccc2)ccc1C
cell number change: -3.6%
AC50 [2]: 0.103 µM [rising, full curve, poor fit]

CCN(CC)S(=O)(=O)c1ccc(NS(=O)(=O)c2cccc(C)c2)cc1
cell number change: 3.61%
AC50 [1]: 0.0651 µM [rising, full curve, poor fit]
AC50 [2]: 32.6 µM [falling, single point]

N#C/C(=C(/O)c1ccc(F)cc1)c1nc2ccccc2s1
cell number change: -11.3%
AC50 [2]: 18.4 µM [falling, single point]

CC(C(=O)NC1=NCCS1)N1C(=O)C2CC=CCC2C1=O (stereo not drawn)
AC50 [2]: 16.4 µM [falling, partial curve]

CCCCn1nc(NC(=O)CC(C)C)c2cc3cc(OC)ccc3nc21
cell number change: -11.7%
AC50 [2]: 29.1 µM [falling, single point]

CCOc1ccc(S(=O)(=O)N(CC)CC(=O)NC2CC2)cc1
cell number change: 7.37%

CCCCn1c(N)c(N(CC(C)C)C(=O)C2CCN(S(=O)(=O)c3ccccc3)CC2)c(=O)[nH]c1=O
cell number change: -1.82%
AC50 [2]: 6.51 µM [rising, single point]

Cn1cnnc1SCC(=O)NC1CCCc2ccccc21 (stereo not drawn)
cell number change: -23.8%
AC50 [2]: 2.91 µM [falling, single point]

CC(C)CN(C(=O)CSc1nnnn1C)C1CCS(=O)(=O)C1 (stereo not drawn)
cell number change: -13.2%

CC1(C)CC(=O)C(N=Nc2ccc(S(=O)(=O)N3CCCCCC3)cc2)=C(O)C1
cell number change: 27.2%
AC50 [1]: 2.31 µM [rising, full curve, poor fit]

COc1ccccc1CCNC(=O)c1csc2c1CCCC2
cell number change: -6.78%
AC50 [2]: 0.58 µM [falling, single point]

O=[N+]([O-])c1ccccc1OCCCOc1cccc2cccnc12
cell number change: -9.49%
AC50 [2]: 1.64 µM [falling, partial curve]

COc1ccccc1/C=C/C=N/N1CCN(Cc2cccc3ccccc23)CC1
cell number change: -4.9%
AC50 [1]: 0.00461 µM [falling, full curve, poor fit]

CCc1nnc(N/N=C/c2c(Cl)cccc2Cl)n1N
cell number change: -20%

CCOc1ccc(C(=O)NCC(=O)OCc2cc([N+](=O)[O-])cc3c2OCOC3)cc1OCC
cell number change: 22.5%

Cc1nc2ccc(S(=O)(=O)NCC(=O)NCc3ccc(Cl)cc3)cc2s1
cell number change: 19.8%
AC50 [2]: 29.1 µM [rising, single point]

Cc1c(CC(=O)N2CCN(C(=O)C3COc4ccccc4O3)CC2)c(=O)oc2c(C)c(O)ccc12 (stereo not drawn)
cell number change: -3.67%

CN(C)[C@H]1N(C(=O)c2ccc(Br)cc2)N=C2c3ccccc3S(=O)(=O)N21
cell number change: 75.3%
AC50 [1]: 3.26 µM [rising, full curve]
AC50 [2]: 0.517 µM [rising, single point]

CCN(CC)S(=O)(=O)c1cc(NC(=O)CNc2cccc(S(=O)(=O)N3CCCC3)c2)ccc1C
cell number change: 58.2%
AC50 [1]: 0.82 µM [rising, full curve]

CCSc1nc(-c2ccc(OC)cc2)cc(-c2ccc(OC)cc2)c1C#N
cell number change: 79.7%
AC50 [1]: 29.1 µM [rising, single point]
AC50 [2]: 20.6 µM [rising, partial curve]

CCN(CC(=O)Nc1ccccc1OC)C(=O)c1ccccc1Sc1ccccc1C#N
cell number change: -11.1%
AC50 [2]: 6.51 µM [falling, partial curve, poor fit]

Cn1nnc2c[n+](CC(=O)c3ccc(Cl)cc3)cc(Br)c21
cell number change: -12.7%
AC50 [1]: 0.461 µM [falling, partial curve]
AC50 [2]: 1.84 µM [falling, partial curve, poor fit]

NC(=O)CCS(=O)(=O)c1ccc(Cl)cc1
cell number change: -27.1%
AC50 [1]: 0.366 µM [falling, full curve, poor fit]
AC50 [2]: 0.259 µM [falling, full curve]

COC(=O)c1sc(NC(=S)NC(=O)c2cccc(C)c2)nc1C
cell number change: -3.83%

CCOC(=O)c1c(-c2ccc(OC)cc2)oc2cc(Br)c(O)cc12
cell number change: -47.1%
AC50 [1]: 20.6 µM [falling, single point]
AC50 [2]: 18.4 µM [falling, single point]

Cn1c(SCc2nc3ccccc3s2)nnc1-c1cccs1
cell number change: -12%

Cc1ccc(-n2c([C@@H]3C[C@H]3c3ccccc3)n[nH]c2=S)cc1
cell number change: -11.2%
AC50 [2]: 0.00411 µM [falling, full curve, poor fit]
